Data published in PMC7103907.
No constants are given. Whether binding was seen depends on the method and setting. Binding seen in cells or lysates may run through a third protein. A yes stands for co-enrichment or nearness to the bait. Other partners may have been found.

Amino acid sequences for entries named in this document (tags omitted).
UniProt Q8R4B8: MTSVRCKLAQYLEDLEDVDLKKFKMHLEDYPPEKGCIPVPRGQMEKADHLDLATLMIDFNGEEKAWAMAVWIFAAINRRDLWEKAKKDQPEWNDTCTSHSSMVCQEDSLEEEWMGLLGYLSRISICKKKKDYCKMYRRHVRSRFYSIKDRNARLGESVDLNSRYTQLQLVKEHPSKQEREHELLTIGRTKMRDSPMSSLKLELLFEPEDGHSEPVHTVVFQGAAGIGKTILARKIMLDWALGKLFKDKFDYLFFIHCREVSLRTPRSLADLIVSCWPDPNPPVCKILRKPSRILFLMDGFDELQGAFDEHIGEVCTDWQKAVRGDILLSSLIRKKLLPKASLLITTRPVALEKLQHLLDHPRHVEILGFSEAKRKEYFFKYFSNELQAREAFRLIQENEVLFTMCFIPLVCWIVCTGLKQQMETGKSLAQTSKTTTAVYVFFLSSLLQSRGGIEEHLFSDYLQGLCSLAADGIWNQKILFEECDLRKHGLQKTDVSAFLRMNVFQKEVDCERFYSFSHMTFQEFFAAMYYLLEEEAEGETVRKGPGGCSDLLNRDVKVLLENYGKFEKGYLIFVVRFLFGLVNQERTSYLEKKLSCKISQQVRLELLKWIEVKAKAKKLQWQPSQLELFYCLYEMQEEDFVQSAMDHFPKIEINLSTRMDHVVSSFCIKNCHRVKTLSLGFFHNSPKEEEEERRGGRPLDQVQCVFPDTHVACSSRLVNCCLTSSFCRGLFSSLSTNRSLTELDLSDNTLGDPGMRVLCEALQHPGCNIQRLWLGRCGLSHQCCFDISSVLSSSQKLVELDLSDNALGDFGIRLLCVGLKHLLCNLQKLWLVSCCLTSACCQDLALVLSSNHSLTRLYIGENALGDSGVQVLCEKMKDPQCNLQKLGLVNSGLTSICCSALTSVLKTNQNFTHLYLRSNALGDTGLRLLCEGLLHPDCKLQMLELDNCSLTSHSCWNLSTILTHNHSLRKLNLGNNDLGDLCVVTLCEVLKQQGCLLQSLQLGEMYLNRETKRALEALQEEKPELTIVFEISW
UniProt P18760: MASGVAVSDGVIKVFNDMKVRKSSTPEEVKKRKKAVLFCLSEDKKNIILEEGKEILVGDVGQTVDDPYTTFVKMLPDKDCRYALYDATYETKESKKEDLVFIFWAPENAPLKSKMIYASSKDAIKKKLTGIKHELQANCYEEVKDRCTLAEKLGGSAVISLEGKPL

Molecular target: NLRP3 (mouse (endogenous in BMDM)) (UniProt Q8R4B8)
Test: affinity purification with mass spectrometry; immune complexes precipitated by NLRP3 specific antibody from BMDMs of WT or NLRP3-KO mice, analysed by mass spectrometry

With Cofilin-1 (from UniProt P18760 1-166) the binding was “binds”.
